# According to PubChem BioAssay AID1259415 (National Center for Advancing Translational Sciences (NCATS), 2018):
# Out of some 410,000 compounds screened, about 18,000 (4.4%) were called active. This list was built around the results that the source calls inconclusive (neither active nor inactive); the mix of calls is not that of the screen. Cut-off read from the data, not from the text of the source: active = activity change below about -60%; inconclusive = no clear call, values can overlap the other calls; inactive = above about -39%.
# Assay: qHTS Assay for inhibitors of the human cytomegalovirus (HCMV)
# Conditions: HFF cells, HCMV-luciferase reporter, 72 h; at 57.5 µM; active compounds read low
# Method in brief: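 Compounds were evaluated in HFFs infected with an HCMV luciferase reporter virus (MOI 1 PFU/cell). Luciferase in lysates collected 72 h post infection served as the replication measure.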
# % is set by controls: 0 for no effect and ±100 for the full control effect.
row,Structure (SMILES),"activity change, negative = inhibition"
1,CC(=O)Nc1nc2c(C)c(Cl)ccc2s1,inconclusive: -43.9%
2,COc1ccc2nc(NC(=O)CSc3nccc(C)n3)sc2c1,inconclusive: -45.6%
3,CCOc1ccc(C(=O)NNC2CC(=O)N(CCc3ccccc3)C2=O)cc1OC (stereo unspecified),inactive: -8.94%
4,CCNC(=O)CSc1nnc(-c2cccs2)o1,inconclusive: -49.6%
5,CN(C)c1nc(=Nc2cccc(Cl)c2)ss1,inconclusive: -40.1%
6,O=C(Nc1ccccc1)c1ccc(-c2ccc([N+](=O)[O-])cc2)o1,active: -66.3%
7,CC(C)Sc1nc2sc(-c3ccccc3)cc2c(=O)n1N,inconclusive: -40.4%
8,Cc1ccccc1N(C(=O)CNC(=O)c1ccco1)C(C(=O)NC1CCCC1)c1ccncc1 (stereo unspecified),inactive: -23.2%
9,CCc1noc(C)c1C(=O)Nc1cc(Cl)ccc1N1CCOCC1,inconclusive: -50.8%
10,CCCn1c(=O)c2sccc2n2c(CCCC(=O)Nc3ccc(Oc4ccc(Cl)cc4)cc3)nnc12,inconclusive: -54.5%
11,Nc1cc(C(=O)N/N=C/c2cccc([N+](=O)[O-])c2)n[nH]c1=O,inconclusive: -42.1%
12,CCOC(=O)c1[nH]c2ccc(OC)cc2c1NC(=S)N1CCN(c2ccccc2OC)CC1,inactive: -16.8%
13,CNCc1sccc1C,inactive: -15%
14,CC(=O)c1oc2ccccc2c1NC(=O)CN1CCCCC1,inconclusive: -41.8%
15,CCCCCCCn1c2c(c(=N)c3ccccc31)CCC2,active: -79.4%
16,C#Cc1cccc(-n2nnc(C(=O)OC)c2-c2ccccc2)c1,active: -102%
17,CCCc1cnc(NCCNCC(O)COc2ccc(Cl)c(Cl)c2)nc1 (stereo unspecified),active: -98.3%
18,Cn1c(CCN2CCN(c3ccc(F)cc3)CC2)nc2cc(NC(=O)c3ccco3)ccc21,inconclusive: -52.8%
19,COCCCn1c(-c2cccs2)nc2nc3ccccc3nc21,inconclusive: -57.3%
20,CC[C@]12c3[nH]c4ccccc4c3CCN1C(=O)C(CC(=O)NCc1cccc(C(F)(F)F)c1)C[C@@H]2C(=O)N1CCN(C(=O)c2ccco2)CC1 (stereo partly specified),inactive: -24%
21,CCC(=O)Nc1cccc(C(=O)c2ccc(C)c(C)c2)c1,inconclusive: -45.2%
22,COCCCNC(=O)c1ccc(-n2c(-c3ccccc3)cc3c2CCC(C)C3)cc1 (stereo unspecified),inconclusive: -56.5%

# A draw from above in order of count of non-hydrogen atoms, ascending.
row,Structure (SMILES),"activity change, negative = inhibition"
13,CNCc1sccc1C,inactive: -15%
4,CCNC(=O)CSc1nnc(-c2cccs2)o1,inconclusive: -49.6%
12,CCOC(=O)c1[nH]c2ccc(OC)cc2c1NC(=S)N1CCN(c2ccccc2OC)CC1,inactive: -16.8%

# Additional structures.

row,Structure (SMILES),"activity change, negative = inhibition"
1,NC(=O)c1ccccc1NC(=O)C(c1ccccc1)c1ccccc1,inconclusive: -40.7%
2,COc1ccc(CCNC(=O)COc2cc(O)c3c(c2)OC(C)(C)CC3=O)cc1OC,inactive: 21.4%
3,CCOc1ccc(-c2cc(C(=O)N/N=C(\C)c3cccnc3)c3ccccc3n2)c(OCC)c1,inactive: -35.7%
4,C=CCc1c(C)nc2nc(SCC(=O)Nc3ccc(C)c(C)c3)nn2c1C,active: -100%
5,O=C(COc1cc(F)ccc1[N+](=O)[O-])Nc1cccc(S(=O)(=O)NC2=NCCC2)c1,inconclusive: -40.7%
6,O=S(=O)(c1cc(Cl)ccc1Cl)n1cccn1,inconclusive: -45%
7,COc1ccc(CCN2C(=O)c3[nH]nc(-c4ccccc4O)c3C2c2cccc(Cl)c2)cc1 (stereo unspecified),inconclusive: -54.5%
8,CS(=O)(=O)NN1C(=O)c2ccccc2NC1c1cccc(O)c1 (stereo unspecified),inconclusive: -41.6%
9,COC1=C(c2ccccc2)C(=O)c2ccccc2C1=O,inactive: -27.6%
10,O=C1NC[C@H](CCCCN2C[C@H](Cc3ccc(O)cc3)N(CC3CCCCC3)C(=O)C2=O)N(CC2CCCCC2)C1=O,inactive: -2.81%
11,COC(=O)C1=C(C)NC(=O)NC1c1ccc(-c2ccc(Cl)cc2)o1 (stereo unspecified),inconclusive: -54.5%
12,Cc1ccc(NS(=O)(=O)c2ccc3c(c2)NC(=O)C(C)C(=O)N3)c(Cl)c1 (stereo unspecified),inconclusive: -45.2%
13,COc1ccccc1N(C)S(=O)(=O)c1ccc(C(=O)N2CCC(C(N)=O)CC2)cc1,inactive: 63.1%
14,Cc1cccc(OCC(=O)Nc2ccccc2N2CCN(C)CC2)c1,inactive: 148%
15,Nc1nc(-c2ccc(Cl)cc2)cc(C(F)(F)F)n1,inactive: 11%
16,CCCCn1c(=O)c(-[n+]2ccccc2)c([O-])c2ccccc21,active: -61.6%
17,COc1cc(NC(=S)NC(=O)c2ccccc2C)ccc1NC(=O)c1cccs1,inactive: -1.29%
18,CC(=O)c1ccc(N2CCN(C(=O)C3CCCN3S(=O)(=O)c3cccc4nsnc34)CC2)cc1 (stereo unspecified),inactive: 17%
19,O=C(c1cccs1)N1CCOCC1,inactive: 5.91%
20,O=C(NC1CC1)C1CCCN(C(=O)NC2CCCCC2)C1 (stereo unspecified),inconclusive: -48.1%
21,CN1/C(=C\C(=O)Nc2ccc(Cl)cc2)C(C)(C)c2ccccc21,inconclusive: -59.3%
22,CC[C@]12c3[nH]c4ccc(Cl)cc4c3CCN1C(=O)[C@@H](CC(=O)NC/C=C(\C)CCC=C(C)C)C[C@@H]2C(=O)N1CCN(C(=O)c2ccco2)CC1,inconclusive: -41.7%

row,Structure (SMILES),"activity change, negative = inhibition"
1,O=S(=O)(NCc1cc(-c2ccccc2)no1)c1ccccc1Cl,inconclusive: -46.8%
2,O=C(NCCc1ccc(Cl)cc1)C1CCN(S(=O)(=O)c2ccc(Br)s2)CC1,inactive: -38.1%
3,Cn1c(Cc2cccc3ccccc23)nnc1SCC(=O)N1CCN(c2ccccc2)CC1,inconclusive: -56.9%
4,O=c1n(Cc2cccc(F)c2)c2ccccc2c2nc(-c3ccccc3)nn12,inconclusive: -52.1%
5,COc1ccccc1C(CNC(=O)C1COc2ccccc2O1)N1CCCC1 (stereo unspecified),inconclusive: 0%
6,CCCCOc1ccc(C(C)NC(=O)c2cccc(Nc3nc4ccccc4n4nnnc34)c2)cc1 (stereo unspecified),active: -98.3%
7,O=C(CCC1CCCN(C(=O)C2=CCCC2)C1)N1CCN(c2ccccn2)CC1 (stereo unspecified),inconclusive: -44.3%
8,Cc1c(CC(=O)N2CCCCC2)c(=O)oc2c(C)c3occ(C(C)(C)C)c3cc12,inconclusive: -52.7%
9,Cc1ccc(CN2CCSc3ccc(C(=O)NCCc4ccccc4)cc32)cc1,inactive: 70%
10,O=C(Nc1cccn(Cc2c(F)cccc2Cl)c1=O)NC1CCCCC1,inconclusive: -51.5%
11,C[N+]1(CC(=O)NNc2c3ccccc3nc3ccccc23)CCOCC1,active: -96.3%
12,O=C(c1cc([N+](=O)[O-])ccc1N1CCCCC1)N1CCCC1,inconclusive: -47.1%
13,NS(=O)(=O)c1cccc(NC(=O)CC2(CC(=O)O)CCCC2)c1,inconclusive: -43.2%
14,CC1(C)Cc2cccc(C(=O)Nc3ccc(Cl)cc3)c2O1,inconclusive: -53.1%
15,COc1cc(NC(=O)Cn2nnc(-c3ccc(C(F)(F)F)cc3)n2)c(C(=O)O)cc1OC,inactive: 34.5%
16,CCNS(=O)(=O)c1ccc(CCC(=O)N2CCN(c3cc(Cl)ccc3C)CC2)cc1,active: -68.5%
17,COc1ccc(S(=O)(=O)N2CCCC2CNC(=O)C(=O)Nc2ccc(C)cc2)cc1 (stereo unspecified),inconclusive: -50.2%
18,Cc1ccc(C#CC[N+](C)(C)CC#Cc2ccccc2)cc1,inactive: -0.766%
19,Nc1ccc(-c2cc3ccccc3oc2=O)cc1,inconclusive: -51.3%
20,COc1cc2cc(CN(CCc3cccc(C)c3)C(=S)NCCCN(C)C)c(=O)[nH]c2cc1OC,active: -89.8%
21,COc1ccc(C)cc1NC(=O)c1cc(S(=O)(=O)N2CCCCC2)ccc1N1CCOCC1,inconclusive: -48.9%
22,COc1ccccc1-c1nc2c(c(SCC(=O)N3CCCCC3)n1)Cc1c(CO)cnc(C)c1O2,inconclusive: -47.6%

# Random excerpt: three compounds from above.
row,Structure (SMILES),"activity change, negative = inhibition"
2,O=C(NCCc1ccc(Cl)cc1)C1CCN(S(=O)(=O)c2ccc(Br)s2)CC1,inactive: -38.1%
21,COc1ccc(C)cc1NC(=O)c1cc(S(=O)(=O)N2CCCCC2)ccc1N1CCOCC1,inconclusive: -48.9%
4,O=c1n(Cc2cccc(F)c2)c2ccccc2c2nc(-c3ccccc3)nn12,inconclusive: -52.1%

# (list continues)

row,Structure (SMILES),"activity change, negative = inhibition"
1,O=C(CSc1nnc(NCc2ccccc2)s1)c1ccco1,inactive: 1.06%
2,CCN1CCN(c2ccc(NC(=O)c3cccc(OCc4ccccc4)c3)cc2)CC1,inactive: -15.5%
3,CC1(c2ccc3ccccc3c2)NC(=O)N(CC(=O)Nc2cccc(S(=O)(=O)N3CCOCC3)c2)C1=O (stereo unspecified),inconclusive: -42.9%
4,O=[N+]([O-])c1cc(Cl)ccc1N1CCN(c2ccccc2O)CC1,inconclusive: -41.8%
5,COc1ccc(Cl)cc1-c1cc(C(=O)Nc2ccc(Br)cc2)[nH]n1,inconclusive: -41.4%
6,Cc1cc(C)c(NS(=O)(=O)c2ccc(-c3cnc(C4CC4)o3)cc2)c(C)c1,active: -91.9%
7,Cc1cc(NC(=O)CN2C(=O)c3ccccc3S2(=O)=O)no1,inconclusive: -49%
8,Cc1ccc(-n2c(SCC(=O)Nc3ccc(C(=O)O)cc3)nnc2-c2ccncc2)cc1,inactive: 0%
9,Cc1ccc(-n2nc(C)c3c(C)cc(=O)n(CC(=O)N4CCCc5ccccc54)c32)cc1,inactive: 6.7%
10,COc1cccc(C(O)c2nc(-c3ccc(C)c(C)c3)cs2)c1 (stereo unspecified),active: -60.7%
11,COc1ccc(N2CCN(S(=O)(=O)c3ccc4c(c3)CC(C)N4C(=O)C3CC3)CC2)cc1 (stereo unspecified),inconclusive: -41.4%
12,COc1ccc(C(=O)Nc2ccnn2C2CCN(Cc3ccc4nonc4c3)CC2)cc1,active: -94%
13,Cc1ccc2nc(C)c(C(=O)N/N=C/c3cccc([N+](=O)[O-])c3)cc2c1,inconclusive: -54.1%
14,O=C(Nc1ccc(Cl)cc1C(F)(F)F)c1ccccc1Cl,inconclusive: -53.1%
15,Cc1ccc(-n2nnnc2SCC(=O)Nc2ncc(Cc3ccccc3Cl)s2)cc1,inconclusive: -40.6%
16,CCc1nnc(NC(=O)C2CC(=O)N(CCc3ccc(F)cc3)C2)s1 (stereo unspecified),active: -64%
17,O=C(CCCN1C(=O)/C(=C/c2ccccc2Cl)SC1=S)NCCCN1CCOCC1,inconclusive: -53.1%
18,COc1ccc(C2=NN(c3nc(-c4ccc(CNC(C)=O)cc4)cs3)C(c3ccco3)C2)cc1 (stereo unspecified),inconclusive: -54.5%
19,COc1ccc(C(=O)NC(=S)SCC(=O)O)cc1,inactive: 7.06%
20,OC[C@@H]1CN(Cc2ccc(-c3ccccc3)cc2)C[C@H](n2cnc3c(Nc4ccccc4)ncnc32)O1,active: -64.8%
